The record followed here is publication PMC10148410.

These are yes or no findings as the source states them, for the method shown. Binding seen in cells or lysates may run through a third protein. Some binding calls cover weakened binding; strength is not graded here.

The target in this experiment is Yes-associated protein (YAP) (human (endogenous in IUA-EndoSCs)), P46937. Briefly: co-IP; lysates of IUA-EndoSCs (control, or treated 24 h with EXO or EXO^PDGFBB); immunoprecipitated with YAP antibody at 4 °C overnight, protein A-sepharose beads 4 h; eluate analysed by western blot. The following applies: remark: other sources report otherwise.

B1: SMAD3, P84022 1-425 (protein)
chain: MSSILPFTPPIVKRLLGWKKGEQNGQEEKWCEKAVKSLVKKLKKTGQLDELEKAITTQNVNTKCITIPRSLDGRLQVSHRKGLPHVIYCRLWRWPDLHSHHELRAMELCEFAFNMKKDEVCVNPYHYQRVETPVLPPVLVPRHTEIPAEFPPLDDYSHSIPENTNFPAGIEPQSNIPETPPPGYLSEDGETSDHQMNHSMDAGSPNLSPNPMSPAHNNLDLQPVTYCEPAFWCSISYYELNQRVGETFHASQPSMTVDGFTDPSNSERFCLGLLSNVNRNAAVELTRRHIGRGVRLYYIGGEVFAECLSDSAIFVQSPNCNQRYGWHPATVCKIPPGCNLKIFNNQEFAALLAQSVNQGFEAVYQLTRMCTIRMSFVKGWGAEYRRQTVTSTPCWIELHLNGPLQWLDKVLTQMGSPSIRCSSVS
Take B1: the binding entry is on record as “binds”.
